Measured values taken from publication PMC10130768.
These are yes or no findings as the source states them, for the method shown. In cells and extracts the contact can be indirect. Here binding means that the protein was enriched with, or labelled near, the bait; the list need not be complete.

Target: HA-FLAG-tagged mouse WT BAZ2A (mouse)
Experiment: affinity purification with mass spectrometry; anti-HA magnetic beads IP of F/H-BAZ2AWT or F/H-BAZ2A_(WY/GA) from MNase-digested nuclear extracts of transfected PC3 cells; LC-MS/MS; three replicates; empty vector as control

B1: SMC1A (protein, UniProt Q14683 1-1233)
chain: MGFLKLIEIENFKSYKGRQIIGPFQRFTAIIGPNGSGKSNLMDAISFVLGEKTSNLRVKTLRDLIHGAPVGKPAANRAFVSMVYSEEGAEDRTFARVIVGGSSEYKINNKVVQLHEYSEELEKLGILIKARNFLVFQGAVESIAMKNPKERTALFEEISRSGELAQEYDKRKKEMVKAEEDTQFNYHRKKNIAAERKEAKQEKEEADRYQRLKDEVVRAQVQLQLFKLYHNEVEIEKLNKELASKNKEIEKDKKRMDKVEDELKEKKKELGKMMREQQQIEKEIKEKDSELNQKRPQYIKAKENTSHKIKKLEAAKKSLQNAQKHYKKRKGDMDELEKEMLSVEKARQEFEERMEEESQSQGRDLTLEENQVKKYHRLKEEASKRAATLAQELEKFNRDQKADQDRLDLEERKKVETEAKIKQKLREIEENQKRIEKLEEYITTSKQSLEEQKKLEGELTEEVEMAKRRIDEINKELNQVMEQLGDARIDRQESSRQQRKAEIMESIKRLYPGSVYGRLIDLCQPTQKKYQIAVTKVLGKNMDAIIVDSEKTGRDCIQYIKEQRGEPETFLPLDYLEVKPTDEKLRELKGAKLVIDVIRYEPPHIKKALQYACGNALVCDNVEDARRIAFGGHQRHKTVALDGTLFQKSGVISGGASDLKAKARRWDEKAVDKLKEKKERLTEELKEQMKAKRKEAELRQVQSQAHGLQMRLKYSQSDLEQTKTRHLALNLQEKSKLESELANFGPRINDIKRIIQSREREMKDLKEKMNQVEDEVFEEFCREIGVRNIREFEEEKVKRQNEIAKKRLEFENQKTRLGIQLDFEKNQLKEDQDKVHMWEQTVKKDENEIEKLKKEEQRHMKIIDETMAQLQDLKNQHLAKKSEVNDKNHEMEEIRKKLGGANKEMTHLQKEVTAIETKLEQKRSDRHNLLQACKMQDIKLPLSKGTMDDISQEEGSSQGEDSVSGSQRISSIYAREALIEIDYGDLCEDLKDAQAEEEIKQEMNTLQQKLNEQQSVLQRIAAPNMKAMEKLESVRDKFQETSDEFEAARKRAKKAKQAFEQIKKERFDRFNACFESVATNIDEIYKALSRNSSAQAFLGPENPEEPYLDGINYNCVAPGKRFRPMDNLSGGEKTVAALALLFAIHSYKPAPFFVLDEIDAALDNTNIGKVANYIKEQSTCNFQAIVISLKEEFYTKAESLIGVYPEQGDCVISKVLTFDLTKYPDANPNPNEQ
For B1, the binding was “binds”.

B2: CTNNBL1 (protein, UniProt Q8WYA6 1-563)
chain: MDVGELLSYQPNRGTKRPRDDEEEEQKMRRKQTGTRERGRYREEEMTVVEEADDDKKRLLQIIDRDGEEEEEEEEPLDESSVKKMILTFEKRSYKNQELRIKFPDNPEKFMESELDLNDIIQEMHVVATMPDLYHLLVELNAVQSLLGLLGHDNTDVSIAVVDLLQELTDIDTLHESEEGAEVLIDALVDGQVVALLVQNLERLDESVKEEADGVHNTLAIVENMAEFRPEMCTEGAQQGLLQWLLKRLKAKMPFDANKLYCSEVLAILLQDNDENRELLGELDGIDVLLQQLSVFKRHNPSTAEEQEMMENLFDSLCSCLMLSSNRERFLKGEGLQLMNLMLREKKISRSSALKVLDHAMIGPEGTDNCHKFVDILGLRTIFPLFMKSPRKIKKVGTTEKEHEEHVCSILASLLRNLRGQQRTRLLNKFTENDSEKVDRLMELHFKYLGAMQVADKKIEGEKHDMVRRGEIIDNDTEEEFYLRRLDAGLFVLQHICYIMAEICNANVPQIRQRVHQILNMRGSSIKIVRHIIKEYAENIGDGRSPEFRENEQKRILGLLENF
With B2 the binding was “binds”.

B3: NUP107 (protein, UniProt P57740 1-925)
chain: MDRSGFGEISSPVIREAEVTRTARKQSAQKRVLLQASQDENFGNTTPRNQVIPRTPSSFRQPFTPTSRSLLRQPDISCILGTGGKSPRLTQSSGFFGNLSMVTNLDDSNWAAAFSSQRSGLFTNTEPHSITEDVTISAVMLREDDPGEAASMSMFSDFLQSFLKHSSSTVFDLVEEYENICGSQVNILSKIVSRATPGLQKFSKTASMLWLLQQEMVTWRLLASLYRDRIQSALEEESVFAVTAVNASEKTVVEALFQRDSLVRQSQLVVDWLESIAKDEIGEFSDNIEFYAKSVYWENTLHTLKQRQLTSYVGSVRPLVTELDPDAPIRQKMPLDDLDREDEVRLLKYLFTLIRAGMTEEAQRLCKRCGQAWRAATLEGWKLYHDPNVNGGTELEPVEGNPYRRIWKISCWRMAEDELFNRYERAIYAALSGNLKQLLPVCDTWEDTVWAYFRVMVDSLVEQEIQTSVATLDETEELPREYLGANWTLEKVFEELQATDKKRVLEENQEHYHIVQKFLILGDIDGLMDEFSKWLSKSRNNLPGHLLRFMTHLILFFRTLGLQTKEEVSIEVLKTYIQLLIREKHTNLIAFYTCHLPQDLAVAQYALFLESVTEFEQRHHCLELAKEADLDVATITKTVVENIRKKDNGEFSHHDLAPALDTGTTEEDRLKIDVIDWLVFDPAQRAEALKQGNAIMRKFLASKKHEAAKEVFVKIPQDSIAEIYNQCEEQGMESPLPAEDDNAIREHLCIRAYLEAHETFNEWFKHMNSVPQKPALIPQPTFTEKVAHEHKEKKYEMDFGIWKGHLDALTADVKEKMYNVLLFVDGGWMVDVREDAKEDHERTHQMVLLRKLCLPMLCFLLHTILHSTGQYQECLQLADMVSSERHKLYLVFSKEELRKLLQKLRESSLMLLDQGLDPLGYEIQL
In the case of B3, the binding is reported as “binds”.

B4: NUP133 (protein, UniProt Q8WUM0 1-1156)
chain: MFPAAPSPRTPGTGSRRGPLAGLGPGSTPRTASRKGLPLGSAVSSPVLFSPVGRRSSLSSRGTPTRMFPHHSITESVNYDVKTFGSSLPVKVMEALTLAEVDDQLTINIDEGGWACLVCKEKLIIWKIALSPITKLSVCKELQLPPSDFHWSADLVALSYSSPSGEAHSTQAVAVMVATREGSIRYWPSLAGEDTYTEAFVDSGGDKTYSFLTAVQGGSFILSSSGSQLIRLIPESSGKIHQHILPQGQGMLSGIGRKVSSLFGILSPSSDLTLSSVLWDRERSSFYSLTSSNISKWELDDSSEKHAYSWDINRALKENITDAIWGSESNYEAIKEGVNIRYLDLKQNCDGLVILAAAWHSADNPCLIYYSLITIEDNGCQMSDAVTVEVTQYNPPFQSEDLILCQLTVPNFSNQTAYLYNESAVYVCSTGTGKFSLPQEKIVFNAQGDSVLGAGACGGVPIIFSRNSGLVSITSRENVSILAEDLEGSLASSVAGPNSESMIFETTTKNETIAQEDKIKLLKAAFLQYCRKDLGHAQMVVDELFSSHSDLDSDSELDRAVTQISVDLMDDYPASDPRWAESVPEEAPGFSNTSLIILHQLEDKMKAHSFLMDFIHQVGLFGRLGSFPVRGTPMATRLLLCEHAEKLSAAIVLKNHHSRLSDLVNTAILIALNKREYEIPSNLTPADVFFREVSQVDTICECLLEHEEQVLRDAPMDSIEWAEVVINVNNILKDMLQAASHYRQNRNSLYRREESLEKEPEYVPWTATSGPGGIRTVIIRQHEIVLKVAYPQADSNLRNIVTEQLVALIDCFLDGYVSQLKSVDKSSNRERYDNLEMEYLQKRSDLLSPLLSLGQYLWAASLAEKYCDFDILVQMCEQTDNQSRLQRYMTQFADQNFSDFLFRWYLEKGKRGKLLSQPISQHGQLANFLQAHEHLSWLHEINSQELEKAHATLLGLANMETRYFAKKKTLLGLSKLAALASDFSEDMLQEKIEEMAEQERFLLHQETLPEQLLAEKQLNLSAMPVLTAPQLIGLYICEENRRANEYDFKKALDLLEYIDEEEDININDLKLEILCKALQRDNWSSSDGKDDPIEVSKDSIFVKILQKLLKDGIQLSEYLPEVKDLLQADQLGSLKSNPYFEFVLKANYEYYVQGQI
B4 was tested, and the binding was “binds”.
